Here are results for one substance from publication doi:10.1101/2020.04.12.019257.

The chains behind the UniProt entries cited, without tags or fusion partners.
UniProt P90916: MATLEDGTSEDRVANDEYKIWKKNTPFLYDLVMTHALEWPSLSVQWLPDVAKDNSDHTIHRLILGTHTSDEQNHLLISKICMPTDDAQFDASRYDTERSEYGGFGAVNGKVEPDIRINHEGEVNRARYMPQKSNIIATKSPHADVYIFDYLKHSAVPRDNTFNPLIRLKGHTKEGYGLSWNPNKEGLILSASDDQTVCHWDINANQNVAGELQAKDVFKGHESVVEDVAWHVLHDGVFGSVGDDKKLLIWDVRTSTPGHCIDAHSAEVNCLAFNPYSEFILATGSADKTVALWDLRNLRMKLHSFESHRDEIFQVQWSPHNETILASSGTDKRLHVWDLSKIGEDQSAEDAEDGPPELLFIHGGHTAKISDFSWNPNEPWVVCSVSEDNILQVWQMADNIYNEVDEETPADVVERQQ
UniProt Q20060: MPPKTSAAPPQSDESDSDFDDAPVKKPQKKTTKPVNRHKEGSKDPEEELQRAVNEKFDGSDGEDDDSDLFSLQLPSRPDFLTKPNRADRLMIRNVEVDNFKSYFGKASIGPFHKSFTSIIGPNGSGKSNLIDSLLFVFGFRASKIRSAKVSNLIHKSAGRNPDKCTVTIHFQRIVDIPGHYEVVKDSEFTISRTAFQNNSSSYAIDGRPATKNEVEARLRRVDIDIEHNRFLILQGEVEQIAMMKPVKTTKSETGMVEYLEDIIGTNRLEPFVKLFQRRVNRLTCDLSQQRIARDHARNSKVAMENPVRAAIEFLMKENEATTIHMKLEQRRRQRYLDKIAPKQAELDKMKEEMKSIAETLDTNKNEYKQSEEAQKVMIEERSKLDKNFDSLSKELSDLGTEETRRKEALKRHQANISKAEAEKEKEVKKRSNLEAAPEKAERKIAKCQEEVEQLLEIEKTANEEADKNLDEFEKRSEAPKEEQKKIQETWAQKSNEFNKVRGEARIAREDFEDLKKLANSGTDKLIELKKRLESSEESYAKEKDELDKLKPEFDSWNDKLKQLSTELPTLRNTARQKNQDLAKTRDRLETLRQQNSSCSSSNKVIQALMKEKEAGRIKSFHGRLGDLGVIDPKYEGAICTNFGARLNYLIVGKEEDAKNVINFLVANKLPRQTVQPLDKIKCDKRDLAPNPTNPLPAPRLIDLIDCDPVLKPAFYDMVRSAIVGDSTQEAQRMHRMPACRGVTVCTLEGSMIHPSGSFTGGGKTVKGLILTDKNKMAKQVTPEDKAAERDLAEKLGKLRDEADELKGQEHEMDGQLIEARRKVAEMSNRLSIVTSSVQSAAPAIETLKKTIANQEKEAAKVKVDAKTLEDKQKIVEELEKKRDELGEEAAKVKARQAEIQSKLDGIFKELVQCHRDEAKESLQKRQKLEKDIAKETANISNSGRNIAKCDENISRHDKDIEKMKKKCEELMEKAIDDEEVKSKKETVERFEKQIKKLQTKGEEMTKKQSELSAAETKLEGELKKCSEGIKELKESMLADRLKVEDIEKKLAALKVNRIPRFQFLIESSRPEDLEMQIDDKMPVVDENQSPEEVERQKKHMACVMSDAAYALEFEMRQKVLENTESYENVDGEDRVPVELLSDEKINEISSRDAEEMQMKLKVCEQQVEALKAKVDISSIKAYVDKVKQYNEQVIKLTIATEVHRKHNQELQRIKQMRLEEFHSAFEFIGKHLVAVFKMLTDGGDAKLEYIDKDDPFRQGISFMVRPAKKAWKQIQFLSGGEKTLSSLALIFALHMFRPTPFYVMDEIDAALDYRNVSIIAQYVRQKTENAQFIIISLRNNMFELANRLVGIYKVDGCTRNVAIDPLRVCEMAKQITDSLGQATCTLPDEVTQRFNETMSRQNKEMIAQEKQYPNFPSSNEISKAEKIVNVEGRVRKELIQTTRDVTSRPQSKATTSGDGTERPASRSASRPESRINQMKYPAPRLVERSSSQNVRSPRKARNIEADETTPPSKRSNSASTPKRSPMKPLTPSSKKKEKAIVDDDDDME

No constants are given. Whether binding was seen depends on the method and setting. In cells and extracts the contact can be indirect.

For this experiment, the target named is RbAp46/48^LIN-53 (C. elegans) (UniProt P90916). As to the kind of experiment: co-IP.

As for “condensin II subunit SMC-4 (from UniProt Q20060 1-1549)”, the binding result is “no binding”.
